Results are given in words; binding and its absence hold for the method and conditions named. In cells and extracts the contact can be indirect. Some entries that bind do so weakly or less than the wild type. Where a sequence is shown, tags or fusion partners need not be part of it.

By UniProt entry, the sequences of proteins in these tests, tags left out.
UniProt O75643: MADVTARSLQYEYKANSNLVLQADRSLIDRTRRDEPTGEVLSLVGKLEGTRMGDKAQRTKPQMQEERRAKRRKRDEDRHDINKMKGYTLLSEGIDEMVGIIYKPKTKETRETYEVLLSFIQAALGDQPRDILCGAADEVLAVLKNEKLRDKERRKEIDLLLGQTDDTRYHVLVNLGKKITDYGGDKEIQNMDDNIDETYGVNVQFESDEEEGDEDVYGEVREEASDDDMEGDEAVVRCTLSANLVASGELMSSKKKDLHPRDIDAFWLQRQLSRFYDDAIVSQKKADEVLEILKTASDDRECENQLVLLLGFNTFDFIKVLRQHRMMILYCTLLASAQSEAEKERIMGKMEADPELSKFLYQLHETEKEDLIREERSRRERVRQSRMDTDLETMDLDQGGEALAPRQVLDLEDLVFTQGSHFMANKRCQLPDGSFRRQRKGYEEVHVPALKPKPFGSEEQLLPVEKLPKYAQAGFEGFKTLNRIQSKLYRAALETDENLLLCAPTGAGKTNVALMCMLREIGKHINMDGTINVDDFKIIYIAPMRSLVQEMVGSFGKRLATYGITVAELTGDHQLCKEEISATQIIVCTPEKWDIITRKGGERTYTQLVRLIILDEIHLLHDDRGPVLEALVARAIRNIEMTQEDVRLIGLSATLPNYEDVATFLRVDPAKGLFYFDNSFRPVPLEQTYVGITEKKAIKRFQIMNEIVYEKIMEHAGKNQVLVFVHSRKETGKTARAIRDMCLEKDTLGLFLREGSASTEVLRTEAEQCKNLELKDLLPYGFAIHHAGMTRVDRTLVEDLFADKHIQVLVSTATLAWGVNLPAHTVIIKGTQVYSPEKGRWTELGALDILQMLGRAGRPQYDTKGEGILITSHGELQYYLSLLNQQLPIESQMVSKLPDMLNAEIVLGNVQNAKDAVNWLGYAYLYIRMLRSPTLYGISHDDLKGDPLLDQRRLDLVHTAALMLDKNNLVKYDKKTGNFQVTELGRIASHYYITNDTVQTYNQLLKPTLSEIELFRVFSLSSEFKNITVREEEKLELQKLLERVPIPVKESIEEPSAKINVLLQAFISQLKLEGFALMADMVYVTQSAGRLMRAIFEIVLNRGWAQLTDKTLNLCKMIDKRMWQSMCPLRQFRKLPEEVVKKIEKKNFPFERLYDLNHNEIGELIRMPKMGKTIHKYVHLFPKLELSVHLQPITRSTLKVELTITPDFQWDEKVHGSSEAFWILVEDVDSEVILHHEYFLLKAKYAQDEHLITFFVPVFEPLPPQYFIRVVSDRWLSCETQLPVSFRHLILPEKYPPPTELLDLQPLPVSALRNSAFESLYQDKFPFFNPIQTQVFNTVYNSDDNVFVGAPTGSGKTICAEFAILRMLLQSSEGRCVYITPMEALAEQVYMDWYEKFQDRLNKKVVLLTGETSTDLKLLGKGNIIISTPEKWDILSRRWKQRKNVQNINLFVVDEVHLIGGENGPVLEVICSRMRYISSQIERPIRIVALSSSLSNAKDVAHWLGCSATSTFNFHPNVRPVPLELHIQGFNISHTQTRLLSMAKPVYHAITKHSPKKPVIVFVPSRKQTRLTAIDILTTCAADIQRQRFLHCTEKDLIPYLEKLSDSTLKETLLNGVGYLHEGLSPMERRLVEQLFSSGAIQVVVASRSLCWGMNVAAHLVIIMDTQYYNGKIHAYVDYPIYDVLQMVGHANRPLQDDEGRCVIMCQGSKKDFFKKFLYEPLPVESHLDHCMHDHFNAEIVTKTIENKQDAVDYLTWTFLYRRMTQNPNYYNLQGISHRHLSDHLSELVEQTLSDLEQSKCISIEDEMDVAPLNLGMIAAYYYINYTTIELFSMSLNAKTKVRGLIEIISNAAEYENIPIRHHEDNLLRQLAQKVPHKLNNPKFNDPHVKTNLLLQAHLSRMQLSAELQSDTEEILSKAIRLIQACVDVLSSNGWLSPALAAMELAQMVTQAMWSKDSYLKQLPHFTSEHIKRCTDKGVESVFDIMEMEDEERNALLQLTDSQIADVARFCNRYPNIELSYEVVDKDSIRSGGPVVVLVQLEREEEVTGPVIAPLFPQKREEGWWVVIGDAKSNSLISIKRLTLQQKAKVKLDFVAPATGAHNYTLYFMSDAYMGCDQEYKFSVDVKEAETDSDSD
UniProt Q99459: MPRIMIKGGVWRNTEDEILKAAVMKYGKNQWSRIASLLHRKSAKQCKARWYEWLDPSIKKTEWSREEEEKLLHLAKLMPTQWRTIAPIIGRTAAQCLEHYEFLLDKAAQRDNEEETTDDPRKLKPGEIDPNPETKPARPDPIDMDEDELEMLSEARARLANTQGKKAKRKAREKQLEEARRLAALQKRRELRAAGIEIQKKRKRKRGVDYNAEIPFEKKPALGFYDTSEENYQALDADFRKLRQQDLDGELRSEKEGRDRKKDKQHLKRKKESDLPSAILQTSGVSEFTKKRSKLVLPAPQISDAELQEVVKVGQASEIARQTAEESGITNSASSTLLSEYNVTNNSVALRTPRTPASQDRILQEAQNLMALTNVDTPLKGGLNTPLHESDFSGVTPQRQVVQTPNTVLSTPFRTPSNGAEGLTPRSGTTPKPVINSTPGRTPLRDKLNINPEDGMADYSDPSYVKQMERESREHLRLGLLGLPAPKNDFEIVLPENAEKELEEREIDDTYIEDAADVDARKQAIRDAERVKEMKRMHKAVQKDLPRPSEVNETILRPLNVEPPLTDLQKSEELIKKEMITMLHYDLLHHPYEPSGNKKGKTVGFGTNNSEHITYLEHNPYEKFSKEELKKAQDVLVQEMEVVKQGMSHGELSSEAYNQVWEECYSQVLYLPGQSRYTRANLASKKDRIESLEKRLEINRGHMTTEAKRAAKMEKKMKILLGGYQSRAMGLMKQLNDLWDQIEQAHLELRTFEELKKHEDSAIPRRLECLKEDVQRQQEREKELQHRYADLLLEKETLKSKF

Drawing on article PMC5958099, this text covers binding for four molecules.

First the molecules themselves.
T1: GFP-DNAJC17 fusion protein (mouse) (UniProt Q91WT4)
T1 sequence: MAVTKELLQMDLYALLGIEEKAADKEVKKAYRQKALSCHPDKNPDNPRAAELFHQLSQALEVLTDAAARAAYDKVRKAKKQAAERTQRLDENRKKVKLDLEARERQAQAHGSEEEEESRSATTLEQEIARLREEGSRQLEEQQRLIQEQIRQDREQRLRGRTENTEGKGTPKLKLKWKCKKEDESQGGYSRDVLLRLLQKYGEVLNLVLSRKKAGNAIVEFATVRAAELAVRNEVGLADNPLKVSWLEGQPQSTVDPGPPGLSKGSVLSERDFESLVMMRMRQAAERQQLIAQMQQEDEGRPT

B1: PLRG1 (protein, UniProt O43660 1-514)
chain: MVEEVQKHSVHTLVFRSLKRTHDMFVADNGKPVPLDEESHKRKMAIKLRNEYGPVLHMPTSKENLKEKGPQNATDSYVHKQYPANQGQEVEYFVAGTHPYPPGPGVALTADTKIQRMPSESAAQSLAVALPLQTKADANRTAPSGSEYRHPGASDRPQPTAMNSIVMETGNTKNSALMAKKAPTMPKPQWHPPWKLYRVISGHLGWVRCIAVEPGNQWFVTGSADRTIKIWDLASGKLKLSLTGHISTVRGVIVSTRSPYLFSCGEDKQVKCWDLEYNKVIRHYHGHLSAVYGLDLHPTIDVLVTCSRDSTARIWDVRTKASVHTLSGHTNAVATVRCQAAEPQIITGSHDTTIRLWDLVAGKTRVTLTNHKKSVRAVVLHPRHYTFASGSPDNIKQWKFPDGSFIQNLSGHNAIINTLTVNSDGVLVSGADNGTMHLWDWRTGYNFQRVHAAVQPGSLDSESGIFACAFDQSESRLLTAEADKTIKVYREDDTATEETHPVSWKPEIIKRKRF
B2: XAB2 (protein, UniProt Q9HCS7 1-855)
chain: MVVMARLSRPERPDLVFEEEDLPYEEEIMRNQFSVKCWLRYIEFKQGAPKPRLNQLYERALKLLPCSYKLWYRYLKARRAQVKHRCVTDPAYEDVNNCHERAFVFMHKMPRLWLDYCQFLMDQGRVTHTRRTFDRALRALPITQHSRIWPLYLRFLRSHPLPETAVRGYRRFLKLSPESAEEYIEYLKSSDRLDEAAQRLATVVNDERFVSKAGKSNYQLWHELCDLISQNPDKVQSLNVDAIIRGGLTRFTDQLGKLWCSLADYYIRSGHFEKARDVYEEAIRTVMTVRDFTQVFDSYAQFEESMIAAKMETASELGREEEDDVDLELRLARFEQLISRRPLLLNSVLLRQNPHHVHEWHKRVALHQGRPREIINTYTEAVQTVDPFKATGKPHTLWVAFAKFYEDNGQLDDARVILEKATKVNFKQVDDLASVWCQCGELELRHENYDEALRLLRKATALPARRAEYFDGSEPVQNRVYKSLKVWSMLADLEESLGTFQSTKAVYDRILDLRIATPQIVINYAMFLEEHKYFEESFKAYERGISLFKWPNVSDIWSTYLTKFIARYGGRKLERARDLFEQALDGCPPKYAKTLYLLYAQLEEEWGLARHAMAVYERATRAVEPAQQYDMFNIYIKRAAEIYGVTHTRGIYQKAIEVLSDEHAREMCLRFADMECKLGEIDRARAIYSFCSQICDPRTTGAFWQTWKDFEVRHGNEDTIKEMLRIRRSVQATYNTQVNFMASQMLKVSGSATGTVSDLAPGQSGMDDMKLLEQRAEQLAAEAERDQPLRAQSKILFVRSDASREELAELAQQVNPEEIQLGEDEDEDEMDLEPNEVRLEQQSVPAAVFGSLKED

For this test, the target named is T1, GFP-DNAJC17 fusion protein (mouse). The test can be described thus: co-IP; lysates of tetracycline-induced GFP-DNAJC17 and GFP HeLa cells, GFP-Trap_A affinity beads (Chromotek), immunoprecipitates analysed by Western blotting.
SNRNP200 (from UniProt O75643 1-2136): the binding entry is reported as “binds”.

Consider CDC5L (from UniProt Q99459 1-802), for which the binding entry is given as “binds”. The result for B1 reads “binds”. The entry for B2 is “binds”.
